# Percent effect of library compounds

Protein sequences, listed by entry. Tags and fused reporters are not part of them. Residues count along the entry.
UniProt P9WNZ1, whole entry: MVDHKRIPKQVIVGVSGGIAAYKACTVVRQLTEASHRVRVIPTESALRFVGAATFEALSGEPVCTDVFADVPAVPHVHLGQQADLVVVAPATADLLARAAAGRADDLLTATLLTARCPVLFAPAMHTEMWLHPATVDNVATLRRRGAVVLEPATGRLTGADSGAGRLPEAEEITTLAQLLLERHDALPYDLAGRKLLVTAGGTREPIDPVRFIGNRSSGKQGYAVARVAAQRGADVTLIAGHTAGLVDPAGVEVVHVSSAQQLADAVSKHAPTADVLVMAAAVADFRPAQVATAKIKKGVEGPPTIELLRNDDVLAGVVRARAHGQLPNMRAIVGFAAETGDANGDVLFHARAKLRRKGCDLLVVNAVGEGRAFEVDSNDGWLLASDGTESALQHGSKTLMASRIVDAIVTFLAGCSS
UniProt Q4DA54, 1-478: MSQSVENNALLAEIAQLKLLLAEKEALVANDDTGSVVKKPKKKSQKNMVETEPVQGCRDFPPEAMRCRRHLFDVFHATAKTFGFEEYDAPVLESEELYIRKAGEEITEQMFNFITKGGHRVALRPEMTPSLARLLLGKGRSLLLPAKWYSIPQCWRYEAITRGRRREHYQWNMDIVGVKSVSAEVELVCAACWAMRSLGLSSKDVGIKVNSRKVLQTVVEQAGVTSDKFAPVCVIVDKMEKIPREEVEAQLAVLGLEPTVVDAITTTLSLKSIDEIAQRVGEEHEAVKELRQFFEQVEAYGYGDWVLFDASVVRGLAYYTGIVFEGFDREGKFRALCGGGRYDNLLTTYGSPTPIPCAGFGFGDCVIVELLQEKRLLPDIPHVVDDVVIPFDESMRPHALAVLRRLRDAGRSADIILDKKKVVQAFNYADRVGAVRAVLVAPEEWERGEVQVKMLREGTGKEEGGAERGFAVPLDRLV

Source: ChEMBL document CHEMBL3988442, “University of Dundee, Small-Polar-MMV Screening Library” (2021).

CoaBC: 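Enzyme assay of CoaBC with a phosphate dye (Biomol Green) read at 650 nm. Target: Coenzyme A biosynthesis protein CoaBC, Mycobacterium tuberculosis (UniProt P9WNZ1). Tested at 30 µM. Direction is inferred from only a few compounds that gave an IC50; most scored high, so higher reads as stronger inhibition. Most strong results did not repeat in a second test. Of about 67,000 compounds tested this way, about 40 (0.06%) reached 50% or more in at least one test.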
TcHisRS: 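Enzyme assay of histidyl-tRNA synthetase; the read-out is not stated. Target: Histidine-tRNA ligase, Trypanosoma cruzi CL Brener (UniProt Q4DA54). Tested at 30 µM. Direction is inferred from retests: higher values go with stronger inhibition. Of about 69,000 compounds tested this way, about 31 (0.045%) reached 50% or more in at least one test.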

Each number is a percent effect as filed.
The record does not define 0% and 100%; most values in the screen are far below 50% and negative numbers occur (in some assays of this library far below -100).
Compounds were drawn at random from those tested, without regard to their results.
A dash means the value is not listed here; it may have been measured.

| # | SMILES | CoaBC | TcHisRS |
|---|---|---|---|
| 1 | `COc1ccnc(N2CCN(C(=O)c3ccn(C)c(=O)c3)CC2)n1` | 14.69 | 7.558 |
| 2 | `COc1nn(C)cc1C(=O)NCC1(O)CCc2ccccc2C1` (stereo unspecified) | 2.163 | 7.212 |
| 3 | `Cc1nc(C)n(C2CCCN(C(=O)CCCn3ccnc3)C2)n1` (stereo unspecified) | 0.6211 | 6.952 |
| 4 | `Cc1cnc2[nH]c(C(F)(F)F)c(CN3CCSCC3)c2c1` | -1.84 | 3.876 |
| 5 | `COC[C@]12COC[C@H]1CN(S(=O)(=O)c1cccnc1)C2` | 6.131 | 4.301 |
| 6 | `COc1ccc(-c2noc(C3=NN(C)C(=O)CC3)n2)cc1OC` | 1.978 | 8.247 |
| 7 | `COCCNC(=O)[C@H]1CN(c2nnc(C)s2)C[C@H]2OCC[C@@H]12` | -13.99 | 1.639 |
| 8 | `CCCc1nc(N2CCCC(C)C2)c2c(n1)c(C)nn2CC` (stereo unspecified) | 4.698 | 9.278 |
| 9 | `CC(C)c1nc(N2CC[C@@H](N(C)CCc3ccccn3)[C@H](O)C2)no1` | 9.535 | 0 |
| 10 | `O=C(O)[C@@H]1CN(C(=O)CSCCN2CCCC2)C[C@H]1c1ccccc1` | 6.582 | 31.2 |
| 11 | `Cn1ccnc1-c1ccc(NCC2COCCO2)nn1` (stereo unspecified) | 4.567 | 7.595 |
| 12 | `c1ccc(-c2nc(CCNc3nnc(C4CCC4)o3)no2)cc1` | 1.279 | 1.01 |
| 13 | `Cc1csc(N2CCN(C(=O)Cc3cccs3)CC2)n1` | 9.662 | 1.453 |
| 14 | `Cc1nc(C(C)C)cc(N2CCC3(CCC(=O)N(CC4CC4)C3)CC2)n1` | 3.433 | 2.326 |
| 15 | `Cc1cc(C(F)(F)F)nc(CCNC(C)Cn2cncn2)n1` (stereo unspecified) | -0.241 | 8.911 |
| 16 | `NC(=O)Cn1c(CO)cnc1SCC(=O)NCc1ccccc1` | -0.1122 | 6.736 |
| 17 | `Cc1cc(OCC(=O)N2CCCC(c3nc(C)c(C)s3)C2)no1` (stereo unspecified) | 4.961 | 5.65 |
| 18 | `CC(C)c1nc(CN(C)C2CCN(CCNS(C)(=O)=O)C2)no1` (stereo unspecified) | -0.527 | 3.422 |
| 19 | `O=C(NC1CC1)[C@H]1C[C@H]2OCC[C@H]2N(Cc2ccc3ccccc3n2)C1` | -2.5 | 4.902 |
| 20 | `CC(C)c1cc(C(=O)NCCCN(C)C)nc(N2CCCC2)n1` | 8.083 | 0 |
| 21 | `CCCN(Cc1ccccc1O)C(=O)Nc1cnn(CCOC)c1` | 2.703 | 3.529 |
| 22 | `Cc1nc(C)c(C(=O)N2CCc3c(C)cccc32)o1` | 1.946 | 5.455 |
| 23 | `CNS(=O)(=O)CCNCC1(O)CCCN(CCC2CCCCC2)C1=O` (stereo unspecified) | -1.327 | 1.508 |
| 24 | `CC(C)N(C)Cc1cnc2n1CCN(C(=O)c1cccs1)C2` | -0.7614 | -2.956 |
| 25 | `CC(=O)NC1CCN(c2cnc(C3CCNCC3)cn2)CC1` | -4.54 | 9.302 |
| 26 | `Cc1nc(C)n(CC2CCCN2CC(=O)Nc2nncs2)n1` (stereo unspecified) | 3.87 | -9.184 |
| 27 | `COCCC1(C(=O)O)CCCN(c2cc(C)c3ccccc3n2)C1` (stereo unspecified) | -0.2433 | 7.879 |
| 28 | `Cn1ncc(N2CCOC(CCNC(=O)NC(C)(C)C)C2)cc1=O` (stereo unspecified) | 0.6734 | 1.01 |
| 29 | `CC(=O)NCCNC(=O)c1nc(C2CC2)n(-c2ccccc2Cl)n1` | -0.4603 | 5.208 |
| 30 | `CN(CCc1ccccn1)CCc1nccs1` | 0.1988 | 7.937 |
| 31 | `Cc1ncsc1C(=O)NCCNC(=O)c1cccs1` | -3.113 | 7.289 |
| 32 | `O=C(NCCc1nncn1C1CC1)c1cc2ccccn2c1` | 4.592 | 6.154 |
| 33 | `CN(Cc1cccc2ncccc12)C(=O)CCC(F)(F)F` | 7.927 | 9.036 |
| 34 | `CC(CN1CCOCC1)NC(=O)Nc1cccnc1-n1cccn1` (stereo unspecified) | 2.071 | 5.208 |
| 35 | `O=C(NCCc1c[nH]cn1)c1n[nH]c2c1CCC2` | 15.8 | 8.247 |
| 36 | `O=C(C1CCC2(CCN(Cc3cccnc3)CC2)CO1)N1CCCC1` (stereo unspecified) | 2.963 | 15.87 |
| 37 | `CNC(=O)C1CCCCN1C(=O)c1csc(-c2ccc(C)cc2)n1` (stereo unspecified) | -3.19 | 2.941 |
| 38 | `CCN(C)Cc1cnc(S(=O)(=O)CC)n1CCOC` | -3.509 | 5.785 |
| 39 | `Nc1ccc(-c2cnc(C3CCCN3)cn2)cn1` (stereo unspecified) | -0.7884 | 6.818 |
| 40 | `O=C(CCCN1CCCCC1)N1CCC(c2nnc[nH]2)CC1` | -1.141 | 6.466 |
| 41 | `Cc1cc(C)c(C#N)c(NCCn2cnnc2C(C)C)n1` | 3.56 | 7.035 |
| 42 | `CCOC(=O)N1CCN(c2nc(NC)c3ccccc3n2)CC1` | 7.402 | -8.197 |
| 43 | `CCCN1CCN(C(=O)c2ccc(Cn3cc(Br)cn3)cc2)CC1` | -9.776 | 7.937 |
| 44 | `O=C(CC1CC1)NC[C@]12COC[C@H]1CN(c1ncc(F)cn1)C2` | 0.4831 | 7.097 |
| 45 | `CC(NC(=O)CCn1cncn1)c1nnc2n1CCCCC2` (stereo unspecified) | 2.108 | 0.3802 |
| 46 | `Cc1c(C2NC3(CCCC3)C(=O)N2CC2CC2)cc(C#N)n1C` (stereo unspecified) | -6.855 | 4.202 |
| 47 | `Cc1cnn(C2CN(Cc3nc(-c4ccco4)no3)C2)c1` | 1.205 | 3.053 |
| 48 | `Cn1c(CO)cnc1SC1CCCN(c2ccccc2F)C1=O` (stereo unspecified) | - | 8.28 |
| 49 | `COC(C)(C)C(=O)N1Cc2cnc(C(C)(C)C)nc2C1` | -1.869 | 2.174 |

The first 4 entries again:

| SMILES | CoaBC | TcHisRS |
|---|---|---|
| `COc1ccnc(N2CCN(C(=O)c3ccn(C)c(=O)c3)CC2)n1` | 14.69 | 7.558 |
| `COc1nn(C)cc1C(=O)NCC1(O)CCc2ccccc2C1` (stereo unspecified) | 2.163 | 7.212 |
| `Cc1nc(C)n(C2CCCN(C(=O)CCCn3ccnc3)C2)n1` (stereo unspecified) | 0.6211 | 6.952 |
| `Cc1cnc2[nH]c(C(F)(F)F)c(CN3CCSCC3)c2c1` | -1.84 | 3.876 |